Measured values published in the supplement of paper PMC4604168 (melanoma cell lines).
The list shows a part of the results. Many values rest on one well or one pass, so single values are uncertain.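 Cells were imaged in 1,536-well plates, and nuclei stained with an antibody against cleaved PARP were counted against all DNA-stained nuclei to give the apoptosis fraction. Screening doses were chosen to leave most cells alive, and resting and induced cleaved-PARP levels differ strongly between cell lines.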

These compounds were tested on RPMI7951 (assay: cleaved PARP positive nuclei fraction relative to DMSO control; melanoma cells; higher = more apoptosis). Conditions: library dose: low library concentration; 72 h.

| SMILES | cleaved PARP positive nuclei fraction |
| --- | --- |
| CO[C@H]1C[C@@H]2CC[C@@H](C)[C@@](O)(O2)C(=O)C(=O)N2CCCC[C@H]2C(=O)O[C@H]([C@H](C)C[C@@H]2CC[C@@H](OCCO)[C@H](OC)C2)CC(=O)[C@H](C)/C=C(\C)[C@@H](O)[C@@H](OC)C(=O)[C@H](C)C[C@H](C)/C=C/C=C/C=C/1C [everolimus] + CO[C@@H]1[C@H](N(C)C(=O)c2ccccc2)C[C@H]2O[C@]1(C)n1c3ccccc3c3c4c(c5c6ccccc6n2c5c31)C(=O)NC4 [Midostaurin] (first compound 0.02 µM, partner dose 0.08 µM) | 139% |
| CO[C@H]1C[C@@H]2CC[C@@H](C)[C@@](O)(O2)C(=O)C(=O)N2CCCC[C@H]2C(=O)O[C@H]([C@H](C)C[C@@H]2CC[C@@H](OCCO)[C@H](OC)C2)CC(=O)[C@H](C)/C=C(\C)[C@@H](O)[C@@H](OC)C(=O)[C@H](C)C[C@H](C)/C=C/C=C/C=C/1C [everolimus] + CCN(CC)CCCCNc1ncc2cc(-c3cc(OC)cc(OC)c3)c(NC(=O)NC(C)(C)C)nc2n1 [PD173074] (first compound 0.02 µM, partner dose 0.1 µM) | 146% |
| CO[C@H]1C[C@@H]2CC[C@@H](C)[C@@](O)(O2)C(=O)C(=O)N2CCCC[C@H]2C(=O)O[C@H]([C@H](C)C[C@@H]2CC[C@@H](OCCO)[C@H](OC)C2)CC(=O)[C@H](C)/C=C(\C)[C@@H](O)[C@@H](OC)C(=O)[C@H](C)C[C@H](C)/C=C/C=C/C=C/1C [everolimus] + Cc1cc(N2CCOCC2)cc2[nH]c(-c3c(NC[C@@H](O)c4cccc(Cl)c4)cc[nH]c3=O)nc12 [BMS536924] (first compound 0.02 µM, partner dose 0.2 µM) | 207% |
